These are yes or no findings as the source states them, for the method shown. Binding seen in cells or lysates may run through a third protein. Some entries that bind do so weakly or less than the wild type. For some assays here: Sequences can lack the tags named with a protein.
Key:
Test in all cases: co-IP
[1] = biological target: HA-Zdhhc5^ΔC-term (Δ270-714) (mouse) (UniProt Q8VDZ4)
[2] = biological target: Zdhhc5^ANYA (Arg144Ala, Arg147Ala) (mouse) (UniProt Q8VDZ4)
[3] = biological target: HA-Zdhhc5^RNYA (Arg147Ala) (mouse) (UniProt Q8VDZ4)
[4] = biological target: HA-Zdhhc17 (mouse) (mouse) (UniProt Q80TN5)
[5] = biological target: T1, HA-Zdhhc18 (mouse) (mouse) (UniProt Q5Y5T2)
T1 sequence: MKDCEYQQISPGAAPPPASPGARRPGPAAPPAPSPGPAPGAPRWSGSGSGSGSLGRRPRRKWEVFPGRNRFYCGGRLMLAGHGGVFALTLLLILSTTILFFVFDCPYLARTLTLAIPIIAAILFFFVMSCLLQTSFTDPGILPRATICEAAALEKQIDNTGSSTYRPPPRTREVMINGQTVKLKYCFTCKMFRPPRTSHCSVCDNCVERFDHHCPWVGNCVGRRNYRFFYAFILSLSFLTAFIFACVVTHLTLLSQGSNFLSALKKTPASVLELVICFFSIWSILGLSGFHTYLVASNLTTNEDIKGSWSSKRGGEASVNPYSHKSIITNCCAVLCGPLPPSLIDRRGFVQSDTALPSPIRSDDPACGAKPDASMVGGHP

Protein sequences, listed by entry. Tags and fused reporters are not part of them. Lines headed by an entry give the natural chain unless they say otherwise; changes in a name come on top.
UniProt Q8VDZ4, whole entry, looked up, stated change not applied: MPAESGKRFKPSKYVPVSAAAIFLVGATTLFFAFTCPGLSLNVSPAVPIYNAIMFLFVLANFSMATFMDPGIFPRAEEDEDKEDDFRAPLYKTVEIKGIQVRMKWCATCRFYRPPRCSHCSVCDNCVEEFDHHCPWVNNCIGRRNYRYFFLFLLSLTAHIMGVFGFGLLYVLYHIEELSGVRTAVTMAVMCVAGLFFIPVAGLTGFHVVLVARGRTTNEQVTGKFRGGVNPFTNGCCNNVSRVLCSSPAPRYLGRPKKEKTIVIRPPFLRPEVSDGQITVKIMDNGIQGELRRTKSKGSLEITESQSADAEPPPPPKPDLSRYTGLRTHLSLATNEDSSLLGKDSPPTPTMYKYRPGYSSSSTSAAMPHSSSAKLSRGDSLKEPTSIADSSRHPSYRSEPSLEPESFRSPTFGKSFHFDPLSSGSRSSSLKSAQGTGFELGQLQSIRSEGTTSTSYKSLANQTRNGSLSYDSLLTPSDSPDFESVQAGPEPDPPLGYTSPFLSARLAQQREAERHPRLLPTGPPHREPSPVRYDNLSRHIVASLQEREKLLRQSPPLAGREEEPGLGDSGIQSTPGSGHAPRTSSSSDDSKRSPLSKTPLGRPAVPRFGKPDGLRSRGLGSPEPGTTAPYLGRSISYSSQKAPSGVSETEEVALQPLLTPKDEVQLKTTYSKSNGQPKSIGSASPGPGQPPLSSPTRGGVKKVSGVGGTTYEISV
UniProt Q80TN5, whole entry: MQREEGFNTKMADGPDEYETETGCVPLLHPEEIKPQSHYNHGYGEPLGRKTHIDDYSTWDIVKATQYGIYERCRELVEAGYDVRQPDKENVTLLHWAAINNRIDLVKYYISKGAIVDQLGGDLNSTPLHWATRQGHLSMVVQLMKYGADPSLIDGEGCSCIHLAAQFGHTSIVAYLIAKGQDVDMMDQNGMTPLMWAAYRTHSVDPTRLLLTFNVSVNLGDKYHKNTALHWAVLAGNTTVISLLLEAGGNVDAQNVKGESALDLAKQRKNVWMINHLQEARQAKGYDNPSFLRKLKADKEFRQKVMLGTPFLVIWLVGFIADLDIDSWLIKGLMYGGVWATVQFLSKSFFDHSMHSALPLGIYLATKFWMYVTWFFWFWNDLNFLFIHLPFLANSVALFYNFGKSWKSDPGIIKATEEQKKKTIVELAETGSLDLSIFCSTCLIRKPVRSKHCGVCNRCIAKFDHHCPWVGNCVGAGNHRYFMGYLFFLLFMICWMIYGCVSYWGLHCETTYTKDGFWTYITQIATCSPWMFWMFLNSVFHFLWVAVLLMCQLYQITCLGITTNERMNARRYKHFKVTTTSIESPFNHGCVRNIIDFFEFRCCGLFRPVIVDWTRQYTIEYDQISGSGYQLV
UniProt Q5Y5T5, whole entry: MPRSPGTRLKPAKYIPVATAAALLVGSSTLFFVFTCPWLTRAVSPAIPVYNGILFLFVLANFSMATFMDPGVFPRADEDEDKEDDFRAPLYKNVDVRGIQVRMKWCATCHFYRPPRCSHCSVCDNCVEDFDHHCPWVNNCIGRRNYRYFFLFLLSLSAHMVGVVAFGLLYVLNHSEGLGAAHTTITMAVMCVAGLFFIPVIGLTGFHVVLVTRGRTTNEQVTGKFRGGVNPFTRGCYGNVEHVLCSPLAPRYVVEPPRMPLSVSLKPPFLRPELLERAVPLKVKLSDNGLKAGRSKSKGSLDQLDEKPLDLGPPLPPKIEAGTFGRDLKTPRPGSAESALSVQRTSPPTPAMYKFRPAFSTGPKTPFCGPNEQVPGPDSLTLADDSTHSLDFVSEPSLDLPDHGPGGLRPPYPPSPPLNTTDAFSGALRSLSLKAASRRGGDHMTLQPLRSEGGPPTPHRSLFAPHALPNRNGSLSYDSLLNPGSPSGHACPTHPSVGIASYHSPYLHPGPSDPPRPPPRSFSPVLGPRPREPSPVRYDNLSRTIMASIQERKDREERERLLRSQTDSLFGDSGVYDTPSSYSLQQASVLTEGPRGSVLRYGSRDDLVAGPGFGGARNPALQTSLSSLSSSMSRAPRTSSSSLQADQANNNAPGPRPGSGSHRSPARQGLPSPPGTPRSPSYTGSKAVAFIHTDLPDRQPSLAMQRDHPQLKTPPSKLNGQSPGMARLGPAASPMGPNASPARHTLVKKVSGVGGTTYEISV
UniProt Q7Z5G4, whole entry: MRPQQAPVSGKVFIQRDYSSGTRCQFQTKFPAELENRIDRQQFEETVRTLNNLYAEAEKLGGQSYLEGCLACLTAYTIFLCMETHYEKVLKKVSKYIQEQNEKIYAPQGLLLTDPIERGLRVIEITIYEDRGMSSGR

[6] = biological target: T2, HA-Zdhhc5^ΔN-term (Δ14-270) (mouse) (UniProt Q8VDZ4)
T2 sequence: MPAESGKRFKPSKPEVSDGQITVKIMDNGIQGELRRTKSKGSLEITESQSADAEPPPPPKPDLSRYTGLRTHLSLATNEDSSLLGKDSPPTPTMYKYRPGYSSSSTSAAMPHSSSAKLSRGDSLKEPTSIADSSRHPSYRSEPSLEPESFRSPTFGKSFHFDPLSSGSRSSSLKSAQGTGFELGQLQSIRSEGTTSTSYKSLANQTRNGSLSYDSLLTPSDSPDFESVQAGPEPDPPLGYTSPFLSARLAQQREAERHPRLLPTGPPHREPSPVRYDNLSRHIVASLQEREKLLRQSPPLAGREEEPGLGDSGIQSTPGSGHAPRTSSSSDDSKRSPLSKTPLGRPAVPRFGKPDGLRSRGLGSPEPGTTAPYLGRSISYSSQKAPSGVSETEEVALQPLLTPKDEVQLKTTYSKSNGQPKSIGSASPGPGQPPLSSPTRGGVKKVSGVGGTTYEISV

[7] = biological target: T3, HA-Zdhhc3 (mouse) (mouse) (UniProt Q8R173)
T3 sequence: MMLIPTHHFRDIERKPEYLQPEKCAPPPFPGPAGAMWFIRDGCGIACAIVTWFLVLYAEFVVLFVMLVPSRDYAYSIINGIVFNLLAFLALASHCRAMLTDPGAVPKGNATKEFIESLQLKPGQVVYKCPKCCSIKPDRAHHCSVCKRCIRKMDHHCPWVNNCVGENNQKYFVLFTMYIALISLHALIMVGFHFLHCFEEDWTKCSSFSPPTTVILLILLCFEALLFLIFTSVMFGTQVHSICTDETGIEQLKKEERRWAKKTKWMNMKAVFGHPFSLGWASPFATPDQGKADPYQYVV

[8] = biological target: HA-Zdhhc8 (mouse) (mouse) (UniProt Q5Y5T5)

Measured: binding

endogenous human GOLGA7 (from UniProt Q7Z5G4 1-137)
binds: [1] | [5] | [8]
no binding: all other assays above
